According to PMC5706957:
Changes are numbered by the printed parent chain. Names may count otherwise. No constants are given. Whether binding was seen depends on the method and setting. Binding can be weak; no strength is given. Each block holds one binder with its values, some of them ahead of it.

Molecular target: GST-GukH^749-1044 (GukHolder COOH-terminus) (Drosophila)
Experiment: pull-down; GST fusions (GST-Khc73 MBS, GST-GukH 749-1044) on glutathione agarose with purified Dlg GK or SH3GK proteins (legend of Figure 5A); binding buffer 10 mM HEPES pH 7.5, 100 mM NaCl, 1 mM dithiothreitol, 0.002% Triton X-100, 4°C, 1 hr; the methods tell the reverse orientation (GST-Dlg on beads, His-GukH added, anti-His blot); both purified

binding: binds
B1: Discs large SH3GK S662D (domain or fragment, UniProt P31007-5 598-975)
chain: TQKRSLYVRALFDYDPNRDDGLPSRGLPFKHGDILHVTNASDDEWWQARRVLGDNEDEQIGIVPDKRRWERKMRARDRSVKFQGHAAANNNLDKQSTLDRKKKNFTFSRKFPFMKSRDEKNEDGSDQEPNGVVSSTSEIDINNVNNNQSNEPQPFMLCYTQDDANAEGASEENVLSYEAVQRLSINYTRPVIILGPLKDRINDDLISEYPDKFGSCVPHTTRPKREYEVDGRDYHFVSSREQMERDIQNHLFIEAGQYNDNLYGTSVASVREVAEKGKHCILDVSGNAIKRLQVAQLYPVAVFIKPKSVDSVMEMNRRMTEEQAKKTYERAIKMEQEFGEYFTGVVQGDTIEEIYSKVKSMIWSQSGPTIWVPSKESL

binding: binds
B2: Discs large SH3GK S676D (domain or fragment, UniProt P31007-5 598-975)
chain: B1 chain with D65S, S79D
